Values of other authors in patent US8883849B2, “Treatment of sleep disturbances” (Wyeth LLC, priority 2001, dated 2014).

Conditions: cited from earlier work

In the case of `CN(C)CCOC(c1ccccc1)c1ccccc1` [DPH, 2-(diphenylmethoxy)-N,N-dimethylethylamine], the “time to reach effective concentrations in the plasma” value (on average, after treatment) is listed as no less than 2 h and the “time until the drug appears in plasma” value (oral administration of a single dose) is listed as no more than 15 min.
